# Experimental data taken from the supplement of paper PMC12067093, “Discovery and optimisation of a covalent ligand for TRIM25 and its application to targeted protein ubiquitination” (Chemical Science, 2025).
# Sequences of proteins named here, by UniProt entry; tags and fusion partners are left off. A change or cut given only in a name is not applied to a line headed by its entry.
# UniProt Q9Y689: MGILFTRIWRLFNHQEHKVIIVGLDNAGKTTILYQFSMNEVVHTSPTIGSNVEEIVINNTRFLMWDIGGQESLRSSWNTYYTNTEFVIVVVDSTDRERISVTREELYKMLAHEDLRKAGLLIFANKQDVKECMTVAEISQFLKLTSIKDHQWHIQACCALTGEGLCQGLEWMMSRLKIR
# UniProt P98171: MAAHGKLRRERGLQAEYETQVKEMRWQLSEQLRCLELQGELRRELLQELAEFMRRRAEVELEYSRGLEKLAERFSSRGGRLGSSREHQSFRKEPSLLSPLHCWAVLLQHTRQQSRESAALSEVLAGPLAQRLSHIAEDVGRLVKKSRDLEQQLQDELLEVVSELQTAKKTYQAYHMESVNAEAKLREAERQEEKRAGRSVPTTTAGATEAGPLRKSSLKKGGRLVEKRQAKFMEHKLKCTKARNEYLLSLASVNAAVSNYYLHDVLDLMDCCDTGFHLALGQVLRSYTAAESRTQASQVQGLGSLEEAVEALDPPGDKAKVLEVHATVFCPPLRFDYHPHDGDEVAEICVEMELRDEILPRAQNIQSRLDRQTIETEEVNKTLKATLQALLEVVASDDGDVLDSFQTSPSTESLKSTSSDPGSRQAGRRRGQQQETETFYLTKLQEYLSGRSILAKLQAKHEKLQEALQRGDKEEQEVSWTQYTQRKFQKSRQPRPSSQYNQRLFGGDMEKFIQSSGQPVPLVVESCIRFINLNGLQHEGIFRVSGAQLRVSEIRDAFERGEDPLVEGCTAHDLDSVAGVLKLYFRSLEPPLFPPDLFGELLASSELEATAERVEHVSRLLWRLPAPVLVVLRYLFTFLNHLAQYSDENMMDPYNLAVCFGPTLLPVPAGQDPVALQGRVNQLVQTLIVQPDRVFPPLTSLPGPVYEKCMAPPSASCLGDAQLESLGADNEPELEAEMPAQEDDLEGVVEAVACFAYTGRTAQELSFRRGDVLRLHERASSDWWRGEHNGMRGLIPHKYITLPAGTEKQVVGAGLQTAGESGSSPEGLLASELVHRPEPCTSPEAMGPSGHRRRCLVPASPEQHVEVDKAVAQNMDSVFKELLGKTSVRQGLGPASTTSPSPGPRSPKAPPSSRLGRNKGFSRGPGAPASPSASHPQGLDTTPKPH
# UniProt P40616: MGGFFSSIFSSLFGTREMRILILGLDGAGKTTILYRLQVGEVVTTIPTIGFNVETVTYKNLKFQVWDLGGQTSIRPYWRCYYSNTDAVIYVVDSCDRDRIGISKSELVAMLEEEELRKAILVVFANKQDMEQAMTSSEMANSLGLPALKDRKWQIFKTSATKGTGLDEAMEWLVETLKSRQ
# UniProt Q96P48: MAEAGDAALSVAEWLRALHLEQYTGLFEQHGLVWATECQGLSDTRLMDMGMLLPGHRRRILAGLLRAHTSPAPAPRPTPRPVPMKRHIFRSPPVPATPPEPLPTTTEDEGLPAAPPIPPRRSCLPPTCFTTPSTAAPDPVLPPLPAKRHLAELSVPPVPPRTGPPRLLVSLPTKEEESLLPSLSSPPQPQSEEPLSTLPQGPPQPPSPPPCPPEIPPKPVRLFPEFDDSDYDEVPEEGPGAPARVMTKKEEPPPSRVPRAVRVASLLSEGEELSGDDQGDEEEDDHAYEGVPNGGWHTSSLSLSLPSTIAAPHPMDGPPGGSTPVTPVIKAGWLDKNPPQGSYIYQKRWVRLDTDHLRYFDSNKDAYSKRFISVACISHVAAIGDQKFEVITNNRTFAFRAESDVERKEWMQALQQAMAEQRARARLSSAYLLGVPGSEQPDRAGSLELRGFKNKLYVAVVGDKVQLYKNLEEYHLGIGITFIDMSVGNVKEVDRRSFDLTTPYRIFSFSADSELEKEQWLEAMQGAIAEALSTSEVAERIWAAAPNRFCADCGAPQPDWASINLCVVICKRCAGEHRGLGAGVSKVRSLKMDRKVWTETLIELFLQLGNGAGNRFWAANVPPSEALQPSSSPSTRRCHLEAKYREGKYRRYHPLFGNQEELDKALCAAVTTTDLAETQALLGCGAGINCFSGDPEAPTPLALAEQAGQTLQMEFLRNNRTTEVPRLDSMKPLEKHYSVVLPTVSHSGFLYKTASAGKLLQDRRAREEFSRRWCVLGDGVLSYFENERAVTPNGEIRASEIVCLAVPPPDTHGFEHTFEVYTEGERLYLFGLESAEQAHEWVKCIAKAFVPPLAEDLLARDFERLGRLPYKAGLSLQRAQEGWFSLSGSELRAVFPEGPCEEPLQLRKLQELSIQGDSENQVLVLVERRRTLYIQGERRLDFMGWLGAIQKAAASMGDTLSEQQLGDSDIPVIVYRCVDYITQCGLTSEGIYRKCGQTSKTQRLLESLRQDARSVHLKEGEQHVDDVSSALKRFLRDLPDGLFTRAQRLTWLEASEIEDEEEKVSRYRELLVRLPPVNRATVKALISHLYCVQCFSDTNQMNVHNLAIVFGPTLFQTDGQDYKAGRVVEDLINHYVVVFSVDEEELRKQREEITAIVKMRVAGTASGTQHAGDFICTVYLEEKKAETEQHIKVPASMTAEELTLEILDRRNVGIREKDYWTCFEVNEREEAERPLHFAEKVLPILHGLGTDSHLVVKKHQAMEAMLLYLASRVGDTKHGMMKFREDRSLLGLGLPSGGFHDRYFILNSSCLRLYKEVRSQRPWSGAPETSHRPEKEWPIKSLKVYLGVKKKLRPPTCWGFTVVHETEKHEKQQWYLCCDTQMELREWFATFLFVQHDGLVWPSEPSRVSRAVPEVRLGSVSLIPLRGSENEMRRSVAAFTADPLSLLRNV
# UniProt O60306: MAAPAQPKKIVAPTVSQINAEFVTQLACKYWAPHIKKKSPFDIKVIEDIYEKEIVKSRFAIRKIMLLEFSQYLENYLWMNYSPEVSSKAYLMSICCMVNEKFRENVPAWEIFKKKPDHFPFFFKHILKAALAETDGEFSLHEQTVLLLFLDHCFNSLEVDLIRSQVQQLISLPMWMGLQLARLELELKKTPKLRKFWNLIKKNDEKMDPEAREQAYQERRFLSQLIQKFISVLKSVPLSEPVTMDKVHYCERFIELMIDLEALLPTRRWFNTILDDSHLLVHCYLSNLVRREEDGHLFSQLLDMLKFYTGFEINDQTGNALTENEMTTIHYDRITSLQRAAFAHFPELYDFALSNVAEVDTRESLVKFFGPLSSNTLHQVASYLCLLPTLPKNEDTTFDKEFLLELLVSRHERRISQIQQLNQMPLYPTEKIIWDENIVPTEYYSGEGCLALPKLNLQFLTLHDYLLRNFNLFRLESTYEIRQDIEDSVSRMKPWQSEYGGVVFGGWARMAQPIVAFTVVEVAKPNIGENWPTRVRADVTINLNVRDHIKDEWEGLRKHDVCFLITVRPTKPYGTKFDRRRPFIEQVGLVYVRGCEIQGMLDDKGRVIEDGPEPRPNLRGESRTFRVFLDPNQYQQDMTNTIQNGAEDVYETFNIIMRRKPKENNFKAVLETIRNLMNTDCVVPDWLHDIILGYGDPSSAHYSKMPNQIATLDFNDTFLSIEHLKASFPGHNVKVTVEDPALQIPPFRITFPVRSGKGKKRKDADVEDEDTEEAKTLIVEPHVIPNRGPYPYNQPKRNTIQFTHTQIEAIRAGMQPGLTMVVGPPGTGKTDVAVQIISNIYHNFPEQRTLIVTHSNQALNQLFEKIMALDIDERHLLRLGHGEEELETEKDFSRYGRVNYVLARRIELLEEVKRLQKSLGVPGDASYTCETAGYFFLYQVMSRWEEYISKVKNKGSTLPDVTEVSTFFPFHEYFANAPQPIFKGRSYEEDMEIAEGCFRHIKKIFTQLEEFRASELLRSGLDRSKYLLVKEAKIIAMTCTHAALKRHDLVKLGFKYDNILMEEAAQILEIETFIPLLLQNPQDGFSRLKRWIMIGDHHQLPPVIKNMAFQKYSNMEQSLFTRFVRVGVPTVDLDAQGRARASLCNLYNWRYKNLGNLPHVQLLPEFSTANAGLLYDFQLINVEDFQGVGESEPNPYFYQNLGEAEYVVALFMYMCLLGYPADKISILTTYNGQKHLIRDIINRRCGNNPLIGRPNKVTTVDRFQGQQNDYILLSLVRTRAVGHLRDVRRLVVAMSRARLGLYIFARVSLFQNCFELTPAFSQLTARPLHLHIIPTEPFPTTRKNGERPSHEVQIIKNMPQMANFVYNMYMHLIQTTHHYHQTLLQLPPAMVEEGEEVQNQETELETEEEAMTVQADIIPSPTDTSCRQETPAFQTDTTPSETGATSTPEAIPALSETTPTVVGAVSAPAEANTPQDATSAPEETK
# UniProt O14497, whole entry, looked up: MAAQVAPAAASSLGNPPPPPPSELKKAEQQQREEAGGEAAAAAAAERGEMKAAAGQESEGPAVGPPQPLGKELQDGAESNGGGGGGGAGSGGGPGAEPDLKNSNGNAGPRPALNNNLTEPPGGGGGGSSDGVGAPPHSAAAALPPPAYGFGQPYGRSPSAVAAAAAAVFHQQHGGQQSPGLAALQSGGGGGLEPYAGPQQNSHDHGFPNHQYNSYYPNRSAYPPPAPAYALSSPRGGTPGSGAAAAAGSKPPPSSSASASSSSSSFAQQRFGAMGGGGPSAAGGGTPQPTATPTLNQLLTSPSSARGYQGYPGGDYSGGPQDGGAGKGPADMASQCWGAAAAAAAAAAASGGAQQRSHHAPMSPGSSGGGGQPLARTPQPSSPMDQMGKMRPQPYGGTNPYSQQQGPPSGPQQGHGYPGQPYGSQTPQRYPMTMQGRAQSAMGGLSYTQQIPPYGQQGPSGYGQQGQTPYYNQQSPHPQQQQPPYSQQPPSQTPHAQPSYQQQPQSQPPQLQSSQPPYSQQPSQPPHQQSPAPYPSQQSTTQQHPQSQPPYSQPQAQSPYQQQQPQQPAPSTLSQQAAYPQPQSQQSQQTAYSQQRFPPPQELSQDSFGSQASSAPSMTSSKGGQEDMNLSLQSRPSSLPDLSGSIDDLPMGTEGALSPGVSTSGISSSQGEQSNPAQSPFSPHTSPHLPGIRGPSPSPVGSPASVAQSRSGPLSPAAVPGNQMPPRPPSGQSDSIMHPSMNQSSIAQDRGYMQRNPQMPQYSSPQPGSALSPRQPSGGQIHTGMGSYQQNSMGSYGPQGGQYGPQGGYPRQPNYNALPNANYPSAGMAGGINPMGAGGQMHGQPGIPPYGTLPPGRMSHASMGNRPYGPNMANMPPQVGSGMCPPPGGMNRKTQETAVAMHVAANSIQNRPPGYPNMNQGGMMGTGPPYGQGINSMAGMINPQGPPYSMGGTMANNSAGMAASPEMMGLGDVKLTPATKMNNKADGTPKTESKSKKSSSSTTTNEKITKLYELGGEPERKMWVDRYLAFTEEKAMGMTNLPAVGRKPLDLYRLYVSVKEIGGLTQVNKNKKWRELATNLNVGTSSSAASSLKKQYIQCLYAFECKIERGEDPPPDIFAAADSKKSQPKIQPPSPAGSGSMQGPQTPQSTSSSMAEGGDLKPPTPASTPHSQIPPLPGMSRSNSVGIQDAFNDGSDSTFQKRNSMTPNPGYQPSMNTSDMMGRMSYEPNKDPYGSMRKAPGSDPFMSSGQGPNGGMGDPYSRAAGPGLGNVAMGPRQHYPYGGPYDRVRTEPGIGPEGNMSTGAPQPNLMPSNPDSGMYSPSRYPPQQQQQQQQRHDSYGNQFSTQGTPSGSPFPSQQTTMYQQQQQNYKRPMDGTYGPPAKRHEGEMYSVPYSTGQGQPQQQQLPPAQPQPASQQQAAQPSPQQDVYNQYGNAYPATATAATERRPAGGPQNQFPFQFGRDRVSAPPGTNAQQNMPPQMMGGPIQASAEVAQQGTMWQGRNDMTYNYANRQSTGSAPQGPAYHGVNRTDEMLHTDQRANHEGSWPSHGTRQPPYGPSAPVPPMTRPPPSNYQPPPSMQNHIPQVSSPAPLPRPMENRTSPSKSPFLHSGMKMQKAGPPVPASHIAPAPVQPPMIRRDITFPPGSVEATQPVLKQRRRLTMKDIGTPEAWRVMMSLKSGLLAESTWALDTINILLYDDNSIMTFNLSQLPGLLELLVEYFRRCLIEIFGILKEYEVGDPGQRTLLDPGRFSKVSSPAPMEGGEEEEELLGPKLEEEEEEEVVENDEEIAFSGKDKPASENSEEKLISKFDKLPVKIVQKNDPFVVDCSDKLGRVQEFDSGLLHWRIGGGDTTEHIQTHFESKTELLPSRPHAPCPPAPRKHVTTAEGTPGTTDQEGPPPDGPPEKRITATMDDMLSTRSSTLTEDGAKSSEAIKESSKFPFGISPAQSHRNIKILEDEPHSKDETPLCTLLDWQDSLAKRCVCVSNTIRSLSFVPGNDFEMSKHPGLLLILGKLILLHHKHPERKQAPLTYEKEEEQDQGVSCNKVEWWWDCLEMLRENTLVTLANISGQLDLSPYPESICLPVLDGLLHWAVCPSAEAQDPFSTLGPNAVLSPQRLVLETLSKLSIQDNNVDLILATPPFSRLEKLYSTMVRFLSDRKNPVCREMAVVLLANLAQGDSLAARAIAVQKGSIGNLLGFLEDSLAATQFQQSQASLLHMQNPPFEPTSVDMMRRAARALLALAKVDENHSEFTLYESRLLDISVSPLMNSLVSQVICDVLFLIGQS
# The other results are listed elsewhere or left out.
# Compound: CC1Cc2ccccc2N1C(=O)C1CCCN(C1)C(=O)CCl (mixture of isomers) [TRIM25 ligand 11 (diastereomer mixture)]
# Experiment: probe-labelled cysteine peptide fold change vs DMSO (competition) (log2 fold change); higher = less target engagement (more negative = stronger competition)
# Conditions: THP-1, incubation time: 4 h
# 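Further: competitive chemoproteomic profiling in live THP-1 cells with an iodoacetamide desthiobiotin (IA-DTB) probe, comparing probe-labelled peptide intensities in compound-treated cells against DMSO-treated controls.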
Target,probe-labelled cysteine peptide fold change (10 µM),probe-labelled cysteine peptide fold change (50 µM)
ARHGEF6_Q15052_738_QCLEEELK (UniProt Q15052),-0.0932,0.125
ARL5A_Q9Y689_132_ECMTVAEISQFLK (UniProt Q9Y689),0.142,0.173
ARHGEF6_Q15052_25_KTICDPEEFLK (UniProt Q15052),-0.021,-0.308
ARHGAP4_P98171_34_CLELQGELR (UniProt P98171),0.103,-0.103
ARHGAP45_Q92619_783_CVCEIER (UniProt Q92619),0.0269,0.181
ARIH1_Q9Y4X5_304_QFCFNCGENWHDPVK (UniProt Q9Y4X5),-0.0925,0.188
ARIH1_Q9Y4X5_281_WCPAPDCHHVVK (UniProt Q9Y4X5),0.128,0.0177
ARAF_P10398_538_ISSNCPK (UniProt P10398),-0.0373,0.0231
APP_P05067_117_CLVGEFVSDALLVPDK (UniProt P05067),-0.171,-0.204
ARHGAP45_Q92619_324_IAHNCR (UniProt Q92619),0.0833,0.118
ARL1_P40616_80+95_CYYSNTDAVIYVVDSCDRDR (UniProt P40616),0.209,0.066
ARL2_P36404_153_SHHWCIQGCSAVTGENLLPGIDWLLDDISSR (UniProt P36404),0.298,0.494
ARHGEF6_Q15052_319_VGGCLLSLMPHFK (UniProt Q15052),-0.288,-0.0828
ARAF_P10398_192_TQHCDPEHFPFPAPANAPLQR (UniProt P10398),0.038,0.0935
ARID1B_Q8NFD5_1141_QYIQYLFAFECK (UniProt Q8NFD5),0.0406,0.142
ARMC1_Q9NVT9_40_AIVQDQGCLPGLILFMDHPNPPVVHSALLALR (UniProt Q9NVT9),-0.016,-0.119
ARMC6_Q6NXE6_121_FCDQCK (UniProt Q6NXE6),-0.0445,0.00978
ARHGAP1_Q07960_91_KIIVFSACR (UniProt Q07960),-0.223,-0.138
ARHGEF12_Q9NZN5_784_EVLLGLKPCEIK (UniProt Q9NZN5),-0.0857,-0.0468
ARID1B_Q8NFD5_1093_LYVCVK (UniProt Q8NFD5),0.0565,0.149
APTX_Q7Z2E3_286_LGYHAIPSMSHVHLHVISQDFDSPCLK (UniProt Q7Z2E3),0.213,-0.0807
ARL14EP_Q8N8R7_5_MDPCSVGVQLR (UniProt Q8N8R7),-0.366,-0.333
ARPC1A_Q92747_70_IVTCGADR (UniProt Q92747),-0.0434,0.00419

Target,probe-labelled cysteine peptide fold change (10 µM),probe-labelled cysteine peptide fold change (50 µM)
ARL3_P36405_118_LSCVPVLIFANK (UniProt P36405),-0.0334,-0.0537
APP_P05067_158_ETCSEK (UniProt P05067),0.0161,0.0395
ARHGEF12_Q9NZN5_1128_TVWQDLICR (UniProt Q9NZN5),-0.028,0.106
ARAP1_Q96P48_900_AVFPEGPCEEPLQLRK (UniProt Q96P48),-0.0398,-0.145
ARHGEF1_Q92888_815_ILSDLLPFCRPGPEGQLAATALRK (UniProt Q92888),-0.326,-0.307
APOH_P02749_124_CTEEGK (UniProt P02749),0.632,0.551
ARHGEF2_Q92974_86_DTLANCTK (UniProt Q92974),-0.0833,-0.0694
APRT_P07741_140_VVVVDDLLATGGTMNAACELLGR (UniProt P07741),-0.00625,-0.0677
AQR_O60306_1039_IIAMTCTHAALK (UniProt O60306),0.0155,0.175
AQR_O60306_96_AYLMSICCMVNEK (UniProt O60306),-0.074,0.0351
ARID1A_O14497_2043_EEEQDQGVSCNK (UniProt O14497),0.662,0.268
ARHGEF2_Q92974_573_TCPSREDFPLIETEDEAYLR (UniProt Q92974),-0.0469,-0.127
ARHGEF1_Q92888_595_VELAAECCR (UniProt Q92888),-0.0599,0.149
ARHGEF11_O15085_866_FQLFMQEAESHPQCR (UniProt O15085),0.187,0.0513
ARNT_P27540_336_FCLVAIGR (UniProt P27540),-0.112,0.134
ARID2_Q68CP9_82_SCSNAAFALK (UniProt Q68CP9),-0.0553,-0.173
ARHGEF7_Q14155_349_VGGCFLNLMPQMK (UniProt Q14155),0.333,0.184
ARHGEF2_Q92974_56_YTNGHLFTTISVSGMTMCYACNK (UniProt Q92974),0.207,0.11
ARHGEF2_Q92974_715_TFNGSIELCR (UniProt Q92974),-0.0939,-0.117
APOBEC3G_Q9HC16_356_HCWDTFVDHQGCPFQPWDGLDEHSQDLSGR (UniProt Q9HC16),0.0156,0.121
ARMH3_Q5T2E6_105_VVNALQTLCALIR (UniProt Q5T2E6),0.188,0.437
ARHGEF10_O15013_809_AADCCR (UniProt O15013),-0.0182,-0.0452
ARL1_P40616_95_CYYSNTDAVIYVVDSCDRDR (UniProt P40616),-0.117,0.0101

Target,probe-labelled cysteine peptide fold change (10 µM),probe-labelled cysteine peptide fold change (50 µM)
ARFRP1_Q13795_141_QDVETCLSIPDIK (UniProt Q13795),0.0693,0.0395
ARHGEF2_Q92974_383_RHGVQECILLVTQR (UniProt Q92974),0.0772,0.254
ARHGEF6_Q15052_564_TSSSSCSAHSSFSSTGQPR (UniProt Q15052),0.336,-0.439
ARHGEF18_Q6ZSZ5_295_ECVNGHQLLQGTFSGPSSCPLCGKPFLSSASLK (UniProt Q6ZSZ5),-0.0898,-0.246
ARCN1_P48444_9_VLLAAAVCTK (UniProt P48444),0.0133,-0.0172
ARID4A_P29374_211_DQCLVR (UniProt P29374),-0.12,-0.203
ARHGDIB_P52566_76_LTLVCESAPGPITMDLTGDLEALK (UniProt P52566),-0.0301,0.105
ARAP3_Q8WWN8_1199_VLEQALQWCQLPEPCSASLLLK (UniProt Q8WWN8),-0.0909,-0.203
ARAP1_Q96P48_1357_LRPPTCWGFTVVHETEK (UniProt Q96P48),0.0858,0.063
ARMC8_Q8IUR7_168_YTQEYICQIFSHCCK (UniProt Q8IUR7),0.0343,0.117
ARHGEF1_Q92888_815_ILSDLLPFCRPGPEGQLAATALR (UniProt Q92888),-0.0893,-0.349
AQR_O60306_250_VHYCER (UniProt O60306),0.113,0.175
ARHGAP35_Q9NRY4_924_FTSIPCSQPQHK (UniProt Q9NRY4),0.127,0.014
ARHGEF40_Q8TER5_636_LLILIHDDLPTELCGFQGAEVLSENDLKR (UniProt Q8TER5),0.00222,-0.149
ARHGAP4_P98171_349_FDYHPHDGDEVAEICVEMELRDEILPR (UniProt P98171),0.132,0.137
ARID2_Q68CP9_538_FACQWLNAHFEVNPDCSVSR (UniProt Q68CP9),0.126,0.237
ARIH2_O95376_270_QMYHAPTDCATIR (UniProt O95376),0.073,0.145
ARIH2_O95376_183_DGVGVGVSCMAQDCPLR (UniProt O95376),-0.227,0.0391
ARID1A_O14497_1874_TELLPSRPHAPCPPAPR (UniProt O14497),0.112,-0.145
ARL1_P40616_80_CYYSNTDAVIYVVDSCDRDR (UniProt P40616),0.0986,0.0972
ARMT1_Q9H993_398_WEFSVPFHQALNGFHPAPLCTIR (UniProt Q9H993),-0.325,-0.0825
ARID2_Q68CP9_525_FACQWLNAHFEVNPDCSVSR (UniProt Q68CP9),0.0447,0.28
